In PubChem BioAssay (NCATS):
Shown are results outside the selection of hits, which stands elsewhere. Inconclusive results are not listed. Calls of active or inactive are those of the source. Unless noted, the call rests on the fitted dose curve; in most records, active means well fitted curve in the direction sought with a large enough effect; inconclusive means small, poorly fitted or top-dose-only effect, or another doubt; inactive means no such curve, though single readings can be large; an effect the other way counts as inactive or inconclusive.

Protein sequences, listed by entry. Tags and fused reporters are not part of them.
UniProt P04637, whole entry, looked up: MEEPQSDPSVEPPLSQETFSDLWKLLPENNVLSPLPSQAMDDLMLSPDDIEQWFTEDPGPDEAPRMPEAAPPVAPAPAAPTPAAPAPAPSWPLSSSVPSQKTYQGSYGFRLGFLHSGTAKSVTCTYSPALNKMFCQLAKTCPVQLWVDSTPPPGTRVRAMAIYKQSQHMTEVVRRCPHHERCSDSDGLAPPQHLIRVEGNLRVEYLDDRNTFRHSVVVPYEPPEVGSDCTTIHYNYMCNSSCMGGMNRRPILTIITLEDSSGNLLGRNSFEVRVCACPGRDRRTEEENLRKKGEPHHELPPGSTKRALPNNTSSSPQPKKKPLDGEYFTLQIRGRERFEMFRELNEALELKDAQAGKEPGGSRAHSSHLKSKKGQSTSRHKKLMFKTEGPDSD

Key:
[1] = biological target: Cellular tumor antigen p53 (Homo sapiens) (UniProt P04637); assay: Primary qHTS for small molecule compounds that upregulate eGFP-tagged delta133p53alpha (in N-terminal) cells. (AID 2060322); conditions: NCI-H358 eGFP-delta133p53alpha fluorescence, 24 h; active compounds read high;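 further: cells pre-induced with doxycycline then dosed without doxycycline; 0% = DMSO vehicle and 100% = reference activator; nearly all actives have a fitted effect of over 75% in size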
Description: Assay Development and Screening Technology
National Center for Advancing Translational Sciences (NCATS),
National Institute of Health (NIH), Rockville, Maryland
Cellular senescence (CS) is one of the hallmarks of aging and age-related diseases. Senescent cells are characterized by an irreversible growth arrest, an increase in senescence-associated beta-galactosidase (SA-beta-gal) activity and p16INK4a expression, an activation of the DNA damage response pathways, and the emergence of a senescence-associated secretory phenotype (SASP).
Delta133p53alpha, a human/primate-specific p53 protein isoform, delays or inhibits the induction of CS and SASP in various types of human cells, including progeria-derived fibroblasts, primary normal astrocytes, and CD8+ T lymphocytes. Induction of delta133p53alpha with small molecule compounds may provide therapeutic opportunities for inhibition of senescence/SASP-associated pathologies in progeria syndromes, astrocyte-mediated neuroprotection in neurodegenerative diseases, and possibly prevention and treatment of a wider range of senescence- and aging-associated diseases.
Here we report the development and validation of a cell-based quantitative high throughput screening (qHTS) assay in 1,536-well format. This qHTS assay uses the NCI-H358 cell line with doxycycline-inducible expression of enhanced green fluorescent protein (eGFP)-tagged delta133p53alpha, which allows efficient and highly quantitative measurement of the protein levels.
PROTOCOL TABLE (as described by Inglese J, Shamu CE and Guy RK. 2007)
SEQUENCE No. (e.g., 1, 2, 3, etc.); […] (e.g., Cells, Incubation, Reagent, etc.); VALUE; DESCRIPTION.
1; Cells; 4uL; 800 doxycycline treated cells / well in doxycycline-free media, 1536-well black, clear-bottom low base Aurora microplates.
2; Compounds; 23 nL; Kalypsis pin tool (Wako) equipped with 1536-well pin heads, 5-azacytidine positive control.
3; Incubation; 24 hr; 37C, 5% CO2; 95% relative humidity.
4; Aspiration; 1x; BioTek EL406 washer dispenser (Agilent).
5; Fixing; 3.5% paraformaldehyde, BioTek EL406 washer dispenser (Agilent).
6; Washing; 1x PBS; BioTek EL406 washer dispenser (Agilent).
7; Nuclei staining; 1:1000 dilution of Hoechst 33342 (Thermofisher), BioTek EL406 washer dispenser (Agilent).
8; Incubation; 20 min; in the dark at room temperature.
9; Washing; 2x, 1x PBS (ThermoFisher), BioTek EL406 washer dispenser (Agilent).
10; Reagent; 10 uL; 1x PBS per well, sealed with clear adhesive tape.
NOTES (numbers refer to sequence numbers above).
1. NCI-H358 cells expressing eGFP-tagged delta133p53alpha were grown in T75 culture flasks and treated with doxycycline for 24h, at 10 ng/ml for eGFP-D133p53a cells (N-terminal cell) and 100 ng/ml for D133p53a-eGFP cells (C-terminal cells). Cells were trypsinized, counted using a Counted 3 Automated Cell Counter (Thermo Fisher), and diluted to a concentration of 200,000 cells/ml. A Multidrop Combi Reagent Dispenser (ThermoFisher) was used to dispense 800 cells/well in […] of doxycycline-free media, into 1536-well black/clear bottom low base plates (AuroraMicroplates).
2. After plating cells, 23 nl of compound library, DMSO vehicle control or positive control (5-azacytidine) were transferred by Pin Tool (Wako). The plate map layout was the same for each plate: (column 1) non-doxycycline treated cells + DMSO vehicle control; (column 2) doxycycline treated cells + DMSO vehicle control baseline; (column 3) doxycycline treated cells + positive control 57.5 uM final concentration 5-azacytidine; (column 4) doxycycline treated cells + serial dilution of 5-azacytidine, 16-point 1:2 titration spanning 1.8 nM to […] final concentration; (columns 5-48) doxycycline treated cells + titration of library compounds.
3. Cells were incubated at 37 °C, 5 % CO2, 95% RH with breathable metal lid for 24h.
4-10. […] After two washes, 10 ul of 1X PBS (Thermo Fisher) was dispensed to each well. Clear adhesive plate seals (VWR) were applied and plates stored at 4 °C.
11. […]

[2] = biological target: Aldehyde dehydrogenase, mitochondrial (Homo sapiens) (UniProt P05091); assay: qHTS for Inhibitors of the Aldehyde Dehydrogenase Family (ALDH2) Primary screen (AID 2061308); conditions: ALDH2 enzyme inhibition qHTS, 1536-well; at 56 µM (top of the series);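 further: plate controls were vehicle for no effect and reference inhibitor for full effect; nearly all actives have a fitted effect of over 55% in size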
[3] = biological target: Retinaldehyde dehydrogenase 3 (Homo sapiens) (UniProt P47895); assay: qHTS for Inhibitors of the Aldehyde Dehydrogenase Family (ALDH1A3) Primary screen (AID 2061315); conditions: ALDH inhibition qHTS; at 56 µM (top of the series);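 further: plate controls were DMSO vehicle for no effect and reference inhibitor for full effect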
[4] = biological target: Aldehyde dehydrogenase, mitochondrial (Homo sapiens) (UniProt P05091); assay: qHTS for Inhibitors of the Aldehyde Dehydrogenase Family (ALDH2) Confirmatory screens (AID 2061303; active means well fitted inhibition curve with a large enough effect; title and protocol of this record describe different tests; further: on the % scale 0 is the no-effect control and ±100 the full control effect; nearly all actives have a fitted effect of over 45% in size); conditions: ALDH inhibition qHTS; at 45.4 µM (top of the series)
[5] = qHTS for Inhibitors of the Aldehyde Dehydrogenase Family (ALDH1A2, ALDH1A3, ALDH2, ALDH3A1) (AID 2061307); conditions: ALDH inhibition qHTS; at 50.3 µM (top of the series); further: on the % scale 0 is the no-effect control and ±100 the full control effect; nearly all actives have a fitted effect of over 50% in size
[6] = biological target: Retinaldehyde dehydrogenase 3 (Homo sapiens) (UniProt P47895); assay: qHTS for Inhibitors of the Aldehyde Dehydrogenase Family (ALDH1A3) Validation screen (AID 2061312); conditions: ALDH1A3 enzyme inhibition qHTS validation, fluorescence; at 84.7 µM (top of the series); further: on the % scale 0 is the no-effect control and ±100 the full control effect; nearly all actives have a fitted effect of over 45% in size

O=C(Nc1cccc(C(F)(F)F)c1)c1ccccc1NCc1ccncc1
inactive: activation [1] 27.7% | activity change, negative = inhibition [2] 1.57% | activity change, negative = inhibition [3] -2.55%

N#Cc1ccc(-c2ccc(NC(=O)Nc3ccc(-c4ccnc5nc[nH]c45)cc3)cc2)cc1
inactive: activation [1] 6.25% | activity change, negative = inhibition [2] -22.9% | activity change, negative = inhibition [3] 15.3%

Nc1ccc(N)c([N+](=O)[O-])c1
inactive: activation [1] 23.4%

N#Cc1ccc2c(c1)CCN(CCC1CCC(NC(=O)c3ccnc4ccccc34)CC1)C2 (stereo not given)
inactive: activation [1] -9.55% | activity change, negative = inhibition [4] -11% | activity change, negative = inhibition [5] -12.5% | activity change, negative = inhibition [2] -9.64% | activity change, negative = inhibition [3] -22.3%

CN([C@H]1c2cc(OCCCC(F)(F)F)ccc2OC(C)(C)[C@@H]1O)S(C)(=O)=O
inactive: activation [1] 4.3% | activity change, negative = inhibition [2] 2.08% | activity change, negative = inhibition [6] -23.3% | activity change, negative = inhibition [3] -13.9%

COc1ccc(-c2c(C)c(C(=O)NN3CCCCC3)nn2-c2ccc(Cl)cc2Cl)cc1
inactive: activation [1] 23.9% | activity change, negative = inhibition [2] -7.64% | activity change, negative = inhibition [6] -23.5% | activity change, negative = inhibition [3] -6.38%
